First the molecules themselves.
B1: PDHA1 (protein, UniProt P08559 30-390, looked up)
Pyruvate dehydrogenase E1 …: FANDATFEIKKCDLHRLEEGPPVTTVLTREDGLKYYRMMQTVRRMELKADQLYKQKIIRGFCHLCDGQEACCVGLEAGINPTDHLITAYRAHGFTFTRGLSVREILAELTGRKGGCAKGKGGSMHMYAKNFYGGNGIVGAQVPLGAGIALACKYNGKDEVCLTLYGDGAANQGQIFEAYNMAALWKLPCIFICENNRYGMGTSVERAAASTDYYKRGDFIPGLRVDGMDILCVREATRFAAAYCRSGKGPILMELQTYRYHGHSMSDPGVSYRTREEIQEVRSKSDPIMLLKDRMVNSNLASVEELKEIDVEVRKEIEDAAQFATADPEPPLEELGYHIYSSDPPFEVRGANQWIKFKSVS
B2: EPB41L3 (protein, UniProt Q9Y2J2 1-1087, looked up)
Band 4.1-like protein 3: MTTESGSDSESKPDQEAEPQEAAGAQGRAGAPVPEPPKEEQQQALEQFAAAAAHSTPVRREVTDKEQEFAARAAKQLEYQQLEDDKLSQKSSSSKLSRSPLKIVKKPKSMQCKVILLDGSEYTCDVEKRSRGQVLFDKVCEHLNLLEKDYFGLTYRDAENQKNWLDPAKEIKKQVRSGAWHFSFNVKFYPPDPAQLSEDITRYYLCLQLRDDIVSGRLPCSFVTLALLGSYTVQSELGDYDPDECGSDYISEFRFAPNHTKELEDKVIELHKSHRGMTPAEAEMHFLENAKKLSMYGVDLHHAKDSEGVEIMLGVCASGLLIYRDRLRINRFAWPKVLKISYKRNNFYIKIRPGEFEQFESTIGFKLPNHRAAKRLWKVCVEHHTFFRLLLPEAPPKKFLTLGSKFRYSGRTQAQTRRASALIDRPAPYFERSSSKRYTMSRSLDGEVGTGQYATTKGISQTNLITTVTPEKKAEEERDEEEDKRRKGEEVTPISAIRHEGKSPGLGTDSCPLSPPSTHCAPTSPTELRRRCKENDCKLPGYEPSRAEHLPGEPALDSDGPGRPYLGDQDVAFSYRQQTGKGTTLFSFSLQLPESFPSLLDDDGYLSFPNLSETNLLPQSLQHYLPIRSPSLVPCFLFIFFFLLSASFSVPYALTLSFPLALCLCYLEPKAASLSASLDNDPSDSSEEETDSERTDTAADGETTATESDQEEDAELKAQELEKTQDDLMKHQTNISELKRTFLETSTDTAVTNEWEKRLSTSPVRLAARQEDAPMIEPLVPEETKQSSGEKLMDGSEIFSLLESARKPTEFIGGVTSTSQSWVQKMETKTESSGIETEPTVHHLPLSTEKVVQETVLVEERRVVHASGDASYSAGDSGDAAAQPAFTGIKGKEGSALTEGAKEEGGEEVAKAVLEQEETAAASRERQEEQSAAIHISETLEQKPHFESSTVKTETISFGSVSPGGVKLEISTKEVPVVHTETKTITYESSQVDPGTDLEPGVLMSAQTITSETTSTTTTTHITKTVKGGISETRIEKRIVITGDADIDHDQALAQAIKEAKEQHPDMSVTKVVVHKETEITPEDGED
B3: SLC3A2 (protein, UniProt P08195 1-630, looked up)
Amino acid transporter heavy …: MELQPPEASIAVVSIPRQLPGSHSEAGVQGLSAGDDSELGSHCVAQTGLELLASGDPLPSASQNAEMIETGSDCVTQAGLQLLASSDPPALASKNAEVTGTMSQDTEVDMKEVELNELEPEKQPMNAASGAAMSLAGAEKNGLVKIKVAEDEAEAAAAAKFTGLSKEELLKVAGSPGWVRTRWALLLLFWLGWLGMLAGAVVIIVRAPRCRELPAQKWWHTGALYRIGDLQAFQGHGAGNLAGLKGRLDYLSSLKVKGLVLGPIHKNQKDDVAQTDLLQIDPNFGSKEDFDSLLQSAKKKSIRVILDLTPNYRGENSWFSTQVDTVATKVKDALEFWLQAGVDGFQVRDIENLKDASSFLAEWQNITKGFSEDRLLIAGTNSSDLQQILSLLESNKDLLLTSSYLSDSGSTGEHTKSLVTQYLNATGNRWCSWSLSQARLLTSFLPAQLLRLYQLMLFTLPGTPVFSYGDEIGLDAAALPGQPMEAPVMLWDESSFPDIPGAVSANMTVKGQSEDPGSLLSLFRRLSDQRSKERSLLHGDFHAFSAGPGLFSYIRHWDQNERFLVVLNFGDVGLSAGLQASDLPASASLPAKADLLLSTQPGREEGSPLELERLKLEPHEGLLLRFPYAA
B4: BSG (protein, UniProt P35613 22-385, looked up)
Basigin: AAGFVQAPLSQQRWVGGSVELHCEAVGSPVPEIQWWFEGQGPNDTCSQLWDGARLDRVHIHATYHQHAASTISIDTLVEEDTGTYECRASNDPDRNHLTRAPRVKWVRAQAVVLVLEPGTVFTTVEDLGSKILLTCSLNDSATEVTGHRWLKGGVVLKEDALPGQKTEFKVDSDDQWGEYSCVFLPEPMGTANIQLHGPPRVKAVKSSEHINEGETAMLVCKSESVPPVTDWAWYKITDSEDKALMNGSESRFFVSSSQGRSELHIENLNMEADPGQYRCNGTSSKGSDQAIITLRVRSHLAALWPFLGIVAEVLVLVTIIFIYEKRRKPEDVLDDDDAGSAPLKSSGQHQNDKGKNVRQRNSS
B5: HNRNPA1L2 (protein)
chain: MSKSASPKEPEQLRKLFIGGLSFETTDESLRSHFEQWGTLTDCVVMRDPNTKRSRGFGFVTYATVEEVDAAMNTTPHKVDGRVVEPKRAVSREDSQRPGAHLTVKKIFVGGIKEDTEEHHLRDYFEQYGKIEVIEIMTDRGSGKKRGFAFVTFDDHDSVDKIVIQKYHTVKGHNCEVRKALPKQEMASASSSQRGRRGSGNFGGGRGDGFGGNDNFGRGGNFSGRGGFGGSCGGGGYGGSGDGYNGFGNDGSNFGGGGSYNDFGNYNNQSSNFGPMKGGNFGGRSSGPYGGGGQYFAKPQNQGGYGVSSSSSSYGSGRRF
B6: IKZF2 (protein, UniProt Q9UKS7 1-526, looked up)
Zinc finger protein Helios: METEAIDGYITCDNELSPEREHSNMAIDLTSSTPNGQHASPSHMTSTNSVKLEMQSDEECDRKPLSREDEIRGHDEGSSLEEPLIESSEVADNRKVQELQGEGGIRLPNGKLKCDVCGMVCIGPNVLMVHKRSHTGERPFHCNQCGASFTQKGNLLRHIKLHSGEKPFKCPFCSYACRRRDALTGHLRTHSVGKPHKCNYCGRSYKQRSSLEEHKERCHNYLQNVSMEAAGQVMSHHVPPMEDCKEQEPIMDNNISLVPFERPAVIEKLTGNMGKRKSSTPQKFVGEKLMRFSYPDIHFDMNLTYEKEAELMQSHMMDQAINNAITYLGAEALHPLMQHPPSTIAEVAPVISSAYSQVYHPNRIERPISRETADSHENNMDGPISLIRPKSRPQEREASPSNSCLDSTDSESSHDDHQSYQGHPALNPKRKQSPAYMKEDVKALDTTKAPKGSLKDIYKVFNGEGEQIRAFKCEHCRVLFLDHVMYTIHMGCHGYRDPLECNICGYRSQDRYEFSSHIVRGEHTFH

One data set relates to mSWI/SNF complexes. Briefly: mSWI/SNF complex purification with HA-tagged baits and mass spectrometry (peptide counts). Also noted: species or system human. The conditions noted are these: 293_HA-BRD7: HA-BRD7 bait purification, total peptide count per co-purified protein.
On to B1, for which the Total was found to be 5.
With B2, the Total was 5.
Same read-out and setting: with B3 the figure was 5; with B4, 5.
Same read-out and setting: with B5 the figure was 5; with B6, 5.

The data set is the same for the next values; noted with them: 293_HA-BRD7: HA-BRD7 bait purification, unique peptide count per co-purified protein.
Molecule B1 had a Unique of 5.
On the same count and under the same terms, with B2 the figure was 5.
On to B3, for which the Unique is given as 5.
The same measure, in the same setting: with B4 the figure was 5.
On to B5, for which the Unique stood at 5.
The molecule B6 displayed a Unique of 5.

Still in this data set, the particulars now being: 293_HA-BRD7 bait purification, mass spectrometry; total peptides per co-purified protein.
Regarding B2, the Total came to 1.

The same data set, now with this note: 293_HA-BRD7 bait purification, mass spectrometry; unique peptides per co-purified protein.
As to B2, the Unique was 1.

(Values after US12729225B2, “Non-canonical SWI/SNF complex and uses thereof” (Dana-Farber Cancer Institute, Inc., priority 2018, dated 2026).)
